# According to patent US7868138B2, “Methods for generating polynucleotides having desired characteristics by iterative selection and recombination” (priority 1994, dated 2011):
# Test system: 15 kb plasmid
# Assay: Assembly reaction of a 15 kb plasmid with cationic detergent, colonies after electroporation
# Parameters: species or system E. coli
Compound,# Colonies (TMAC 15 mM),# Colonies (TMAC 30 mM),# Colonies (TMAC 60 mM),# Colonies (TMAC 90 mM),# Colonies (CTAB 30 mM),# Colonies (CTAB 100 mM),# Colonies (CTAB 300 mM)
"C[N+](C)(C)C.[Cl-] [TMAC, tetramethylammonium chloride]",88,301,15,3,,,
"CCCCCCCCCCCCCCCC[N+](C)(C)C.[Br-] [CTAB, cetyltrimethylammonium bromide]",,,,,34,14,0
